The list shows a part of the results.

Chains of the proteins cited; added tags and fusions are not shown. Lines headed by an entry give the natural chain unless they say otherwise; changes in a name come on top.
UniProt P50570: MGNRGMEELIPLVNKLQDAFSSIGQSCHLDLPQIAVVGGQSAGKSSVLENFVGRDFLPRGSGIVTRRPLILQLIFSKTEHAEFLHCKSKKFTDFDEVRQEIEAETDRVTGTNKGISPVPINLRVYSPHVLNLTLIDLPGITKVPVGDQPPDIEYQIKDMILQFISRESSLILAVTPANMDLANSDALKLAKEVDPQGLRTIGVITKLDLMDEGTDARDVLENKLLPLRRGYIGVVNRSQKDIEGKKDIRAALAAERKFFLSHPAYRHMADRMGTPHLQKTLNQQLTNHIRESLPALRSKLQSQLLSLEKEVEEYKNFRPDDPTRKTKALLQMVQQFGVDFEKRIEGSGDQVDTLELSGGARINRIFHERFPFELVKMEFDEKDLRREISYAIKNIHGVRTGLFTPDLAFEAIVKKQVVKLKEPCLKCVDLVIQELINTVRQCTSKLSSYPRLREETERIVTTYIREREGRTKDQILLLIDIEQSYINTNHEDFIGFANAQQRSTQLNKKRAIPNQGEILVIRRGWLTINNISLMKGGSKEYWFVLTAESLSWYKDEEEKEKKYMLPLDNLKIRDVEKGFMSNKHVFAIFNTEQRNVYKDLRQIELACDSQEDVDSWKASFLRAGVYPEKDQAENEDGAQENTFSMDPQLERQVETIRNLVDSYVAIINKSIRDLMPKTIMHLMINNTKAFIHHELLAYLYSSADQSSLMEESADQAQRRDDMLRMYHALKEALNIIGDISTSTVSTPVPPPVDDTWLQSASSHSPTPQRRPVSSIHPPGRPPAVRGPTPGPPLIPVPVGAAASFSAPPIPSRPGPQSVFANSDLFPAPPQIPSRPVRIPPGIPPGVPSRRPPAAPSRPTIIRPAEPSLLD
UniProt Q05193: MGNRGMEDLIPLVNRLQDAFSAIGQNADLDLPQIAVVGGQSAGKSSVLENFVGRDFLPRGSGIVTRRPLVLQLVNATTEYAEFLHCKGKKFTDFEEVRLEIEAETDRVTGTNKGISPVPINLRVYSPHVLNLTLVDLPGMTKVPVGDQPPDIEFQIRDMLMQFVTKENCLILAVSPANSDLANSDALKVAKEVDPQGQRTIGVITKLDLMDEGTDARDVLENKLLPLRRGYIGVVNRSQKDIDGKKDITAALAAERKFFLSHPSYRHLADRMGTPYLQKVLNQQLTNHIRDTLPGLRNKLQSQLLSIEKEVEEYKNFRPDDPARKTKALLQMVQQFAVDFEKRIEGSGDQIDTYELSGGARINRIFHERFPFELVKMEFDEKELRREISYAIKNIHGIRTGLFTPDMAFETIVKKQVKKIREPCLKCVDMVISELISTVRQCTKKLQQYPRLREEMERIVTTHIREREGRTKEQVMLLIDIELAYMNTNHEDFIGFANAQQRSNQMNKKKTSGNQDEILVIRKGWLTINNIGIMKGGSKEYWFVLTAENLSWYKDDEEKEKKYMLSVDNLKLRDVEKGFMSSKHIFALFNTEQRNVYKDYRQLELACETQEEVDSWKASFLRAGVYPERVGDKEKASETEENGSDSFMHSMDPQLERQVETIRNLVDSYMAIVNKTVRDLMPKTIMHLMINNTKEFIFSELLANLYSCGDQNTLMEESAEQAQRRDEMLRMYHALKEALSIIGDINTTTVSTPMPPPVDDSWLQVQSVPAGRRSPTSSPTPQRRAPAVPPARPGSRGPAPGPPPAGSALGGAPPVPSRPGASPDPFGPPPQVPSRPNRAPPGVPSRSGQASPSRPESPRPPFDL
UniProt Q96HY7: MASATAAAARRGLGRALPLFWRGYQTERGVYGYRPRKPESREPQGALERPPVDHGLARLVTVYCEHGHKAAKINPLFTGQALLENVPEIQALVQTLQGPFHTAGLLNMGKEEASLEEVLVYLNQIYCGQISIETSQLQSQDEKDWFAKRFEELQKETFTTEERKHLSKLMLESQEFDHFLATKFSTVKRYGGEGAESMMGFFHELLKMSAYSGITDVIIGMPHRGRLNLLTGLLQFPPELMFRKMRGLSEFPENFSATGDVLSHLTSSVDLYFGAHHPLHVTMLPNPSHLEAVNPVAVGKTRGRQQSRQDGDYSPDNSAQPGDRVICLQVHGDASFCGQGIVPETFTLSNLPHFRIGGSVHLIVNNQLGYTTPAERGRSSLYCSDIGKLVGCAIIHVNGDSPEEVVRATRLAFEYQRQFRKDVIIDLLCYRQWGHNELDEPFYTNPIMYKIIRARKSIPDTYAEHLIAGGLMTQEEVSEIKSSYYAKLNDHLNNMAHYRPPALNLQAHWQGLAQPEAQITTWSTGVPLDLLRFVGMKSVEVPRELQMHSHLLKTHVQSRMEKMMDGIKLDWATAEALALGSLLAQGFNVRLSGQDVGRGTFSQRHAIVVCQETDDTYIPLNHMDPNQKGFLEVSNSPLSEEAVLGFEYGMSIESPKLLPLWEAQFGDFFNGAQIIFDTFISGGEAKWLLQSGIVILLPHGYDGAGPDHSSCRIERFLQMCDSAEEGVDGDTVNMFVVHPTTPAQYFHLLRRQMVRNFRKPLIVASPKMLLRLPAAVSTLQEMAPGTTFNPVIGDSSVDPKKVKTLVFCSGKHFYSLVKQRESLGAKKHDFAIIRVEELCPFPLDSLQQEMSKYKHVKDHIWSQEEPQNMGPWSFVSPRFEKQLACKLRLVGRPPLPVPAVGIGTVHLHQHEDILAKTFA
UniProt Q9NYP3: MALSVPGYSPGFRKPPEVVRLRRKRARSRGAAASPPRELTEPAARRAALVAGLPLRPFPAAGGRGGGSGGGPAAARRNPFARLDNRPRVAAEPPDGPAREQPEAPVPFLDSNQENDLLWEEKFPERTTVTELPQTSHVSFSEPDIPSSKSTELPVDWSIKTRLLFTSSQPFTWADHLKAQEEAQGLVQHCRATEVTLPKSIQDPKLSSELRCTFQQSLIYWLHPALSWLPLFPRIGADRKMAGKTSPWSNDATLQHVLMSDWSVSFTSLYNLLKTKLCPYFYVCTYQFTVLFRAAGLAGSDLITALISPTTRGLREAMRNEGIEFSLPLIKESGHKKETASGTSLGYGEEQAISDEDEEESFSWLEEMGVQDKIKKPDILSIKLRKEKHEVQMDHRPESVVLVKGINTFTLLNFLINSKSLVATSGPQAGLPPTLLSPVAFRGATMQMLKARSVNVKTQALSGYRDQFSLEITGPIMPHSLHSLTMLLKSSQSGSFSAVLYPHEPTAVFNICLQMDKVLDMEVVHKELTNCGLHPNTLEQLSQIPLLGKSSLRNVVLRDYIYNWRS
UniProt Q9BY27: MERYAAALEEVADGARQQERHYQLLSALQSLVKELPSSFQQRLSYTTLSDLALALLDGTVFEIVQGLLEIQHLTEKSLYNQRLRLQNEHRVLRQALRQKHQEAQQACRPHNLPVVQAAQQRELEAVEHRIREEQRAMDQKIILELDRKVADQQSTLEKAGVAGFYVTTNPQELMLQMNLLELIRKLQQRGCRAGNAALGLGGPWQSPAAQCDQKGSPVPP
UniProt O60496: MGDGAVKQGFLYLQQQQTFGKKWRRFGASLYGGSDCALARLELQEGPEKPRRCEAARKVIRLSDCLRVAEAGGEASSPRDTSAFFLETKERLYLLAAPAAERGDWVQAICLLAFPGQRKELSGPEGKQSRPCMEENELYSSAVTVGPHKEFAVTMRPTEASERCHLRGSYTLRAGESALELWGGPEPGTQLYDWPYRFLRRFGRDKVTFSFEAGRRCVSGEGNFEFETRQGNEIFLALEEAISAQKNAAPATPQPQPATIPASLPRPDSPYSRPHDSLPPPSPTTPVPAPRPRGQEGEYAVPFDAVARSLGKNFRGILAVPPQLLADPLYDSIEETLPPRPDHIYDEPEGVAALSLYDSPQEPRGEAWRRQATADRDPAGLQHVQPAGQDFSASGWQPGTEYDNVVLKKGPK
UniProt Q9Y2G8: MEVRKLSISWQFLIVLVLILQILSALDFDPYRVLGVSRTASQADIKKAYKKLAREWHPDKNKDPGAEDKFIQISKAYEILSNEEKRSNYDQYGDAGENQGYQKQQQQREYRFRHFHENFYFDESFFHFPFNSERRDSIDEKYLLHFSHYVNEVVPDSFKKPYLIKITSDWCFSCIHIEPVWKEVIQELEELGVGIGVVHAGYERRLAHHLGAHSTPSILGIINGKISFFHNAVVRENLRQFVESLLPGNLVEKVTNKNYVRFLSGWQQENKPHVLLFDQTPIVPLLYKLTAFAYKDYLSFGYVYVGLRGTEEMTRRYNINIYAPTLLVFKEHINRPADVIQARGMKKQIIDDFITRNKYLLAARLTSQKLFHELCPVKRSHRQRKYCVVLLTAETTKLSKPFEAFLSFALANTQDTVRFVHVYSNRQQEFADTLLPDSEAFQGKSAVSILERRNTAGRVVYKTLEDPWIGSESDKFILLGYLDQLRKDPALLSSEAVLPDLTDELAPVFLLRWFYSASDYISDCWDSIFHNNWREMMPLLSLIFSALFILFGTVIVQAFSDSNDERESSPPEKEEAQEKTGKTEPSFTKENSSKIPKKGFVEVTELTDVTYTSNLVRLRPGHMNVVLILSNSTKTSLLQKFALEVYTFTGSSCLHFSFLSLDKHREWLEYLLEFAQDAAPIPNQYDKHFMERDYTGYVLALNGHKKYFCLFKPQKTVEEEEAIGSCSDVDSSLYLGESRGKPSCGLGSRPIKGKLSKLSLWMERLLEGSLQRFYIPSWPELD
UniProt Q9H3H5: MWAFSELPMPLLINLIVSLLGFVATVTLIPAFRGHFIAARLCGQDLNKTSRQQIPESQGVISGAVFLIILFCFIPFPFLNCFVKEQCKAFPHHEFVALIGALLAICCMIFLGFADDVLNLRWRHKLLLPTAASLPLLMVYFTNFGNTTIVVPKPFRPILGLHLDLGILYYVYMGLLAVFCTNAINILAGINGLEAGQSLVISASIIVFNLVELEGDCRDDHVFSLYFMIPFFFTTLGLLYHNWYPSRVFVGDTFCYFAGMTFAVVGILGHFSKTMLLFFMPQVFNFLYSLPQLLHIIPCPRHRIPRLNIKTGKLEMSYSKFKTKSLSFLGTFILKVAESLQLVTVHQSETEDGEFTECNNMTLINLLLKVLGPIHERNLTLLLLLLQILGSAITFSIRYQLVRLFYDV
UniProt Q5SXM8: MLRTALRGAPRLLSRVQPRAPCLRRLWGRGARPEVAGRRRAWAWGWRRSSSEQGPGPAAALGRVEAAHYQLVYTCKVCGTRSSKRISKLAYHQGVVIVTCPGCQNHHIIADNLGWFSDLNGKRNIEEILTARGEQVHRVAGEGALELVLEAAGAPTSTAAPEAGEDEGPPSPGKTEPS
UniProt Q9UBS3: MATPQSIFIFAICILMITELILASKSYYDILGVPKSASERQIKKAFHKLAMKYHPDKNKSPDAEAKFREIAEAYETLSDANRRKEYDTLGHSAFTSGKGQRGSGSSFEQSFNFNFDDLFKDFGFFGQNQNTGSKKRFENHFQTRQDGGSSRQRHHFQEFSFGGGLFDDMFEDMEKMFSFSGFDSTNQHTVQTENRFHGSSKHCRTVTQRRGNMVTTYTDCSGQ
UniProt Q6Y2X3: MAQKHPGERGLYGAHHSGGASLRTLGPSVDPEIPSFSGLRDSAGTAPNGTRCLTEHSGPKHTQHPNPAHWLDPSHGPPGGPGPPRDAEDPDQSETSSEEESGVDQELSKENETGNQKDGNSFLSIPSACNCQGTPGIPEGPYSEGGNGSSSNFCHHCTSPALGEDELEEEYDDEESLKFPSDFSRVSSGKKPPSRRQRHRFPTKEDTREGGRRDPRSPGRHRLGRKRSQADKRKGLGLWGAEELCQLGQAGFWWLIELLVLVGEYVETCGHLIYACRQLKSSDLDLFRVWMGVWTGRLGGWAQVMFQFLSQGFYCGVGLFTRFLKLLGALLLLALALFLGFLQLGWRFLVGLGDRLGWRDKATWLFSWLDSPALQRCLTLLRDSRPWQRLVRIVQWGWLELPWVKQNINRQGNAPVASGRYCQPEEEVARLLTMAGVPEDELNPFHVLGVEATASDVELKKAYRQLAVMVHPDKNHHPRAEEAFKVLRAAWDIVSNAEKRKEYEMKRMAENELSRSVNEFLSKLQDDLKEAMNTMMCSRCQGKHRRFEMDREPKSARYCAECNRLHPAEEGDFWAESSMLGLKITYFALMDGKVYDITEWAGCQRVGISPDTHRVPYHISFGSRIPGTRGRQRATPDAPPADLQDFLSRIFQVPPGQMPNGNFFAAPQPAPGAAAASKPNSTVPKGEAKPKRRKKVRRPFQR
UniProt Q07687: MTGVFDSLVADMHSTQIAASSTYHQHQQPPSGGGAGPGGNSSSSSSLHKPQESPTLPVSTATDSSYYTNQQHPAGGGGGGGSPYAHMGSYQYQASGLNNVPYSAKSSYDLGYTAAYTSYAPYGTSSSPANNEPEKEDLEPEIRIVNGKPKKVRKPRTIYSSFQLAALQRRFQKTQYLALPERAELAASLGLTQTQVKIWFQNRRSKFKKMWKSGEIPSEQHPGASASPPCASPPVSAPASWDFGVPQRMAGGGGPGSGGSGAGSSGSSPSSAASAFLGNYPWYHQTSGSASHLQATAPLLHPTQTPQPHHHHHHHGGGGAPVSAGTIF

Compound in the first test: CN1CC[C@H](c2c(O)cc(O)c3c(=O)cc(-c4ccccc4Cl)oc23)[C@H](O)C1 [alvocidib]
The test can be described thus: log2 fold change, soluble protein after heating vs DMSO (PISA); higher = thermal stabilisation; K562 lysate, 10 uM; active = over 0.2 and 3.5 SD of the protein, either way, in both replicates (recomputed). A digest of the protocol:
(§1)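 Soluble protein was defined as the supernatant remaining after 21,000xg for 90 min, following pooling of heated aliquots and adjustment to 0.5% NP-40 at 4°C. Before that, crude K562 extract at 1 mg/mL protein in PBS pH 7.4 with 1 mM MgCl2 was treated with 10 μM compound for 30 min and heated for 3 min across 48°C-58°C. Quantification used TMTpro 16plex LC-MS/MS with channel sums equalised, and values are log-two fold changes in thermal stability relative to solvent controls from duplicates.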
Turning to DNM2 isoform 4 (UniProt P50570), the log2 fold change is inactive: -0.16.

With DLGAP5 isoform 3 (UniProt Q15398), the log2 fold change is inactive: 0.

Take DNM1 (UniProt Q05193): the log2 fold change is inactive: -0.014.

On to DHTKD1 (UniProt Q96HY7), for which the log2 fold change was inactive: 0.028.

For the target DONSON (UniProt Q9NYP3), the log2 fold change is inactive: 0.04.

In the case of DGCR6L (UniProt Q9BY27), the log2 fold change is inactive: 0.066.

Take DOLK (UniProt Q9UPQ8): the log2 fold change is inactive: 0.115.

As to DOCK11, A0A0J9YW64, the log2 fold change is inactive: -0.005.

On to DNAJB1 (UniProt M0R128), for which the log2 fold change was inactive: -0.073.

In the case of DOK2 (UniProt O60496), the log2 fold change is inactive: -0.213.

As to DNAJC16 (UniProt Q9Y2G8), the log2 fold change was inactive: 0.175.

For the target DMD isoform 14 (UniProt P11532), the log2 fold change was inactive: 0.256.

Turning to DNMT3A (UniProt Q9Y6K1), the log2 fold change was inactive: -0.106.

Take DNMT1 (UniProt P26358): the log2 fold change was inactive: -0.07.

For DHPS (UniProt M0R1T2), the log2 fold change is inactive: -0.097.

Consider DHX33 (UniProt Q9H6R0), for which the log2 fold change was inactive: -0.02.

Take DPAGT1 (UniProt Q9H3H5): the log2 fold change was inactive: -0.075.

For DNASE1L1 (UniProt P49184), the log2 fold change was inactive: -0.109.

Regarding DNAJB14 (UniProt H7C494), the log2 fold change was inactive: -0.02.

For the target DNLZ (UniProt Q5SXM8), the log2 fold change is inactive: 0.03.

Compound in the next test: CN1CCc2c(c3ccccc3n2Cc2ccc(C(=O)NO)cc2)C1 [Tubastatin A]
The test is described as above. A digest of the protocol:
as §1
For DNM2 isoform 4 (UniProt P50570), the log2 fold change is inactive: -0.095.

For DNAJB9 (UniProt Q9UBS3), the log2 fold change is inactive: -0.113.

For the target DNM1 (UniProt Q05193), the log2 fold change is inactive: -0.236.

As to DHTKD1 (UniProt Q96HY7), the log2 fold change is inactive: 0.072.

With DONSON (UniProt Q9NYP3), the log2 fold change was inactive: -0.079.

As for DGCR6L (UniProt Q9BY27), the log2 fold change is inactive: -0.089.

As to DNAJB1 (UniProt M0R128), the log2 fold change was inactive: 0.152.

On to DOK2 (UniProt O60496), for which the log2 fold change is inactive: -0.195.

In the case of DNAJC16 (UniProt Q9Y2G8), the log2 fold change was inactive: 0.106.

For the target DLG1 isoform 3 (UniProt Q12959), the log2 fold change was inactive: -0.015.

On to DMD isoform 14 (UniProt P11532), for which the log2 fold change was inactive: 0.141.

As to DNMT1 (UniProt P26358), the log2 fold change is inactive: -0.03.

Consider DNAJC14 (UniProt Q6Y2X3), for which the log2 fold change was inactive: 0.014.

For the target DPAGT1 (UniProt Q9H3H5), the log2 fold change was inactive: -0.048.

For DNPEP (UniProt B9ZVU2), the log2 fold change was inactive: 0.053.

With DLC1 (UniProt Q96QB1), the log2 fold change was inactive: -0.082.

DNASE1L1 (UniProt P49184): the log2 fold change is inactive: 0.06.

On to DHRSX (UniProt Q8N5I4), for which the log2 fold change was inactive: -0.062.

For DLX2 (UniProt Q07687), the log2 fold change is inactive: -0.294.

With DHRS13 (UniProt Q6UX07), the log2 fold change is inactive: -0.087.

As to DNAJB14 (UniProt H7C494), the log2 fold change was inactive: 0.012.

With DNLZ (UniProt Q5SXM8), the log2 fold change was inactive: 0.135.

For the origin of these results see the supplement of paper PMC10849652.
